The record followed here is article PMC10618295.

Sequences of proteins named here, by UniProt entry; tags and fusion partners are left off.
UniProt Q96EB6: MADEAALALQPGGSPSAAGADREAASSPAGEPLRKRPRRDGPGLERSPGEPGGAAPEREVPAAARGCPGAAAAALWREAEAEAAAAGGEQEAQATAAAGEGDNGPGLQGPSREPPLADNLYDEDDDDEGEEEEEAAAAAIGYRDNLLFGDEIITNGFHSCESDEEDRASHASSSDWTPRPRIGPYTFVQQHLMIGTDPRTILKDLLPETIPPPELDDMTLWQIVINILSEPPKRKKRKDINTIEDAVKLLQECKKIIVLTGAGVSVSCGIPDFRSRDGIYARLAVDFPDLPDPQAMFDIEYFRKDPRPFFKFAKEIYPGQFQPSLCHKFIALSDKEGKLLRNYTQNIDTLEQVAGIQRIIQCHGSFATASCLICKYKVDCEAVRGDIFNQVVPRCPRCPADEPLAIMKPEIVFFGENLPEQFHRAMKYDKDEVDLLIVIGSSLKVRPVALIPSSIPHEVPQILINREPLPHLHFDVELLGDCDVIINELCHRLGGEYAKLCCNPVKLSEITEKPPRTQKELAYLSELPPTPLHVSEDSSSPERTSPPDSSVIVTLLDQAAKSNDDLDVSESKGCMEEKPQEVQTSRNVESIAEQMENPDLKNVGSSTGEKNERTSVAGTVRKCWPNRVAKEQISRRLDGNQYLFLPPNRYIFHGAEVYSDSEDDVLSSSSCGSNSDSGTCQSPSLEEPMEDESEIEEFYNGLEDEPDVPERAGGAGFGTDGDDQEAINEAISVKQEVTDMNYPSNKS
UniProt P01106: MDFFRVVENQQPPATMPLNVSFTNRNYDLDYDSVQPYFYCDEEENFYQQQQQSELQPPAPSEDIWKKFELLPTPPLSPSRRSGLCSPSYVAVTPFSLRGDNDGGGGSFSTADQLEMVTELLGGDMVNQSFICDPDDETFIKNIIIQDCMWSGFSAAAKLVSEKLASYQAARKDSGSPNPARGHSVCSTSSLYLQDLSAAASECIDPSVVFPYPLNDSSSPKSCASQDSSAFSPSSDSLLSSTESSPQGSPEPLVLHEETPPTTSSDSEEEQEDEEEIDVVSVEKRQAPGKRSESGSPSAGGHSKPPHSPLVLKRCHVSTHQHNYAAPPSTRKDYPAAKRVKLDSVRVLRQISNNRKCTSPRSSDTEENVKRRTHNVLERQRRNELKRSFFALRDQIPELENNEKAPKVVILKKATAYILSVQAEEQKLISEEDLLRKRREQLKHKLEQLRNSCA

The assay has as its target SIRT1 (anti-SIRT1 immunoprecipitation of Supplementary Fig. 6c) (UniProt Q96EB6). The experiment in a line: co-IP; precipitation with an anti-SIRT1 antibody (Supplementary Fig. 6c); cells not given.

These are yes or no findings as the source states them, for the method shown. In cells and extracts the contact can be indirect.

Take “c-Myc (from UniProt P01106 1-454) (other; other documents disagree on this pair)”: the binding result is on record as “no binding”.
